No constants are given. Whether binding was seen depends on the method and setting. For some of these results: Binding seen in cells or lysates may run through a third protein. Some results given as binding are weak or reduced against the parent protein; the word gives no strength.

By UniProt entry, the sequences of proteins in these tests, tags left out. Where a name states a change or a piece, a line headed by the entry shows the natural chain unless it says otherwise. Chains listed by the source or under a name are the forms on record and can include a tag or linker. Residues count along the entry.
human TRPC5 (amino acids 1 to 765, TRPC5EM) in lipid nanodiscs, EGFP and Twin-StrepII-tag removed (Q9UL62, residues 1-765): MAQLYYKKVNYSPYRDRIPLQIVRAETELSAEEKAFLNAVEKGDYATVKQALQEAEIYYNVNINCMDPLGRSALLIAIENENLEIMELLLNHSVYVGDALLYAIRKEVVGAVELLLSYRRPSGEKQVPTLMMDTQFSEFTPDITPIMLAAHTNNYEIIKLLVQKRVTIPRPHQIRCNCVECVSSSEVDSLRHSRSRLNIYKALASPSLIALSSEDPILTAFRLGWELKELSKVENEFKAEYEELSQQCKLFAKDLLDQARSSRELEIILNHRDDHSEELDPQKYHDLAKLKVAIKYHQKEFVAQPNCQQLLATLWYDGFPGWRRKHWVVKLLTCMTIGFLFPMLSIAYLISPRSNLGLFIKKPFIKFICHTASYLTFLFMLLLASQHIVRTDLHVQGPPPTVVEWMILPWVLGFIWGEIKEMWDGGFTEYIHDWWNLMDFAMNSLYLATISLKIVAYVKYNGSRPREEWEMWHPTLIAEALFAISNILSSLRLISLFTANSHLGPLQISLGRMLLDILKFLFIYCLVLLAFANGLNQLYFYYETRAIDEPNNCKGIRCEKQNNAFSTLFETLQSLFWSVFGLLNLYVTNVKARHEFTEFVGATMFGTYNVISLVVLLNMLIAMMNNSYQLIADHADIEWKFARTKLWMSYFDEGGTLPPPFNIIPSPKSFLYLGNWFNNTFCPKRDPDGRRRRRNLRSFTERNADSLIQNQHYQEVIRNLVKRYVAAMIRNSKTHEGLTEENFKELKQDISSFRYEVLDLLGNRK
ECFP-fused human TRPC5EM^IYY/AAA (TRPC5EM^IYY/AAA-ECFP) (Q9UL62, form named): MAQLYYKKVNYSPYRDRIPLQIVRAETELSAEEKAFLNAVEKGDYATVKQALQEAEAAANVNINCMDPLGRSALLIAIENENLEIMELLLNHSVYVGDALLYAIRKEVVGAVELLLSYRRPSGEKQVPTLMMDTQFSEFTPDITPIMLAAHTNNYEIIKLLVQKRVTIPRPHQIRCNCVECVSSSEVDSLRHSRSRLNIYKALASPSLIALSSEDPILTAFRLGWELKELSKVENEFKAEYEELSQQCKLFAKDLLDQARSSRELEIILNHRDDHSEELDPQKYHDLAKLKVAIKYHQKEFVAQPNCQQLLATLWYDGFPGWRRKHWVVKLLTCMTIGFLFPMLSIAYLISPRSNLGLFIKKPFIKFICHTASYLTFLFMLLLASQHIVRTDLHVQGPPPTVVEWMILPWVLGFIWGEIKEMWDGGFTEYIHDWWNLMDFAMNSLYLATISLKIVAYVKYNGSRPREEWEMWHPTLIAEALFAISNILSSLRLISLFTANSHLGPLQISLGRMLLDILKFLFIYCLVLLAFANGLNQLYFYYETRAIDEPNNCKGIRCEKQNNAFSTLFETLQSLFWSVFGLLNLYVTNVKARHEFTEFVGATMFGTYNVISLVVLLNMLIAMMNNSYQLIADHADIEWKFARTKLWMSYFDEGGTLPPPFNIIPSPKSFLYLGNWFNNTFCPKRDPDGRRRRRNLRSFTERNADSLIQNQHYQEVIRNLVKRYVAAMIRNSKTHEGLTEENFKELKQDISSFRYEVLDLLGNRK

The target in assay [1] is ECFP-fused human TRPC5EM^IYY/AAA (TRPC5EM^IYY/AAA-ECFP) (human) (UniProt Q9UL62). The assay is described as follows: FRET or BRET; three-cube FRET (effective FRET efficiency, EEFF) in live HEK293T cells co-expressing ECFP-tagged TRPC5 and EYFP-tagged Gαi3^Q204L. A general note: BRET reads energy transfer from a luciferase to a nearby fluorophore.
In assay [2] the target is ECFP-fused human TRPC5EM (TRPC5EM-ECFP) (human) (UniProt Q9UL62). Described as above.
The target of assay [3] is human TRPC5 (amino acids 1 to 765, TRPC5EM) in lipid nanodiscs, EGFP and Twin-StrepII-tag removed (human) (UniProt Q9UL62). The assay is described as follows: cryo-EM structure; TRPC5EM in MSP2N2/soybean lipid nanodiscs, alone or mixed with GTP-activated N-myristoylated Gαi3^Q204L at Gα:TRPC5 monomer = 6:1; Buffer A (50 mM Tris-HCl pH 8.0, 150 mM NaCl, 1 mM DTT) with 5 μM GTP; 2.5 mM CaCl2 added before vitrification; no PIP2; both purified.

For assay [4] the target is unchanged. The assay is described as follows: SEC; Superose 6 10/300 GL in Buffer A with 5 μM GTP after overnight incubation at 4 °C of Gαi3 with nanodisc-reconstituted TRPC5 (6:1) and HRV-3C cleavage; peak fractions analysed by SDS-PAGE; both purified. On the technique in general: In gel filtration, larger molecules generally elute earlier.

Turning to “EYFP-fused human Gαi3^Q204L (Gαi3-EYFP-Q204L) (from UniProt P08754 1-354)”, the binding entry in assay [1] is “no binding”; in assay [2], “binds”.

B1: N-myristoylated human Gαi3^Q204L, GTP-activated (natural protein)
chain: TLSAEDKAAVERSKMIDRNLREDGEKAAKEVKLLLLGAGESGKSTIVKQMKIIHEDGYSEDECKQYKVVVYSNTIQSIIAIIRAMGRLKIDFGEAARADDARQLFVLAGSAEEGVMTPELAGVIKRLWRDGGVQACFSRSREYQLNDSASYYLNDLDRISQSNYIPTQQDVLRTRVKTTGIVETHFTFKDLYFKMFDVGGLRSERKKWIHCFEGVTAIIFCVALSDYDLVLAEDEEMNRMHESMKLFDSICNNKWFTETSIILFLNKKDLFEEKIKRSPLTICYPEYTGSNTYEEAAAYIQCQFEDLNRRKDTKEIYTHFTCATDTKNVQFVFDAVTDVIIKNNLKE
modifications: myristoylation at the N-terminal glycine
notes: hexa-histidine tag inserted between M119 and T120; Incubated with 1 mM GTP for 1 h at 30 °C before use; The His tag is internal and no cleavage is described; Myristoylation of the N-terminal glycine implies loss of the first methionine; also called myristoylated Gαi3^Q204L
For B1, the binding result in assay [3] and in assay [4] was “binds” in each case.
